Reference: patent publication US7371746B2, “1,2,4-Thiadiazole compounds and pests controlling composition containing the same” (Sumitomo Chemical Company Limited, priority 2003, dated 2008)
Some of these results come from one statement about several compounds together.

system: Bemisia argentifolii (silverleaf whitefly); assay: Test Example 2: spray test on cabbage plants with silverleaf whitefly larvae; assay type: in vivo; conditions: 500 ppm active ingredient, spray 20 ml/cup on cabbage with about 80 to 100 eggs laid, seventh day after the application

Structure (SMILES) | number of surviving larvae on the cabbage leaves
CC#CCOc1nsc(N2CC(CC)CC(CC)C2)n1 (stereo not shown) [present compound (19), 3-(2-butynyloxy)-5-(3,5-diethylpiperidino)-1,2,4-thiadiazole] | ≤ 10
C#CCOc1nsc(N2CC(C)CC(C)C2)n1 (stereo not shown) [present compound (20), 3-(2-propynyloxy)-5-(3,5-dimethylpiperidino)-1,2,4-thiadiazole] | ≤ 10
CCC#CCOc1nsc(N2CC(C)CC(C)C2)n1 (stereo not shown) [present compound (16a), 3-(2-pentynyloxy)-5-(3,5-dimethylpiperidino)-1,2,4-thiadiazole] | ≤ 10
CCC#CCOc1nsc(N2CC(C)OC(C)C2)n1 (stereo not shown) [present compound (18a), 3-(2-pentynyloxy)-5-(2,6-dimethylmorpholino)-1,2,4-thiadiazole] | ≤ 10
CCC#CCOc1nsc(N2CCCCC2)n1 [present compound (4), 3-(2-pentynyloxy)-5-piperidino-1,2,4-thiadiazole] | ≤ 10
CC#CCOc1nsc(N2CCCCCC2)n1 [present compound (13), 3-(2-butynyloxy)-5-hexamethyleneimino-1,2,4-thiadiazole] | ≤ 10
CC#CCOc1nsc(N2CCCC(C)C2)n1 (stereo not shown) [present compound (7), 3-(2-butynyloxy)-5-(3-methylpiperidino)-1,2,4-thiadiazole] | ≤ 10
CC#CCOc1nsc(N2CCCC(C(F)(F)F)C2)n1 (stereo not shown) [present compound (22), 3-(2-butynyloxy)-5-(3-trifluoromethylpiperidino)-1,2,4-thiadiazole] | ≤ 10
CC#CCOc1nsc(N2CCC(C)CC2)n1 [present compound (11), 3-(2-butynyloxy)-5-(4-methylpiperidino)-1,2,4-thiadiazole] | ≤ 10
CCC#CCOc1nsc(N2CCCCC2C)n1 (stereo not shown) [present compound (6), 3-(2-pentynyloxy)-5-(2-methylpiperidino)-1,2,4-thiadiazole] | ≤ 10
CC#CCOc1nsc(N2CC(C)CC(C)C2)n1 (stereo not shown) [present compound (15a), 3-(2-butynyloxy)-5-(3,5-dimethylpiperidino)-1,2,4-thiadiazole] | ≤ 10
CCC#CCOc1nsc(N2CCCC(C)C2)n1 (stereo not shown) [present compound (8), 3-(2-pentynyloxy)-5-(3-methylpiperidino)-1,2,4-thiadiazole] | ≤ 10
CC#CC(C)Oc1nsc(N2CC(C)CC(C)C2)n1 (stereo not shown) [present compound (21), 3-(1-methyl-2-butynyloxy)-5-(3,5-dimethylpiperidino)-1,2,4-thiadiazole] | ≤ 10
CCC#CCOc1nsc(N2CCCCCC2)n1 [present compound (14), 3-(2-pentynyloxy)-5-hexamethyleneimino-1,2,4-thiadiazole] | ≤ 10
CCC#CCOc1nsc(N2CCC(C)CC2)n1 [present compound (12), 3-(2-pentynyloxy)-5-(4-methylpiperidino)-1,2,4-thiadiazole] | ≤ 10
CC#CCOc1nsc(N2CC(C)OC(C)C2)n1 (stereo not shown) [present compound (17a), 3-(2-butynyloxy)-5-(2,6-dimethylmorpholino)-1,2,4-thiadiazole] | ≤ 10
CC#CCOc1nsc(N2CCCCC2C)n1 (stereo not shown) [present compound (5), 3-(2-butynyloxy)-5-(2-methylpiperidino)-1,2,4-thiadiazole] | ≤ 10

system: Nilaparvata lugens (brown planthopper); assay: Test Example 3: spray test on rice plants with brown planthopper larvae; assay type: in vivo; conditions: 500 ppm active ingredient, spray 20 ml/cup on rice plants, thirty first-instar larvae released, 6th day, 25° C.

Structure (SMILES) | number of parasitic insects on the rice plants
CCC#CCOc1nsc(N2CC(C)OC(C)C2)n1 (stereo not shown) [present compound (18a), 3-(2-pentynyloxy)-5-(2,6-dimethylmorpholino)-1,2,4-thiadiazole] | ≤ 3
CCC#CCOc1nsc(N2CCCCC2)n1 [present compound (4), 3-(2-pentynyloxy)-5-piperidino-1,2,4-thiadiazole] | ≤ 3
CC#CCOc1nsc(N2CCCC(C)C2)n1 (stereo not shown) [present compound (7), 3-(2-butynyloxy)-5-(3-methylpiperidino)-1,2,4-thiadiazole] | ≤ 3
CCC#CCOc1nsc(N2CCCCC2C)n1 (stereo not shown) [present compound (6), 3-(2-pentynyloxy)-5-(2-methylpiperidino)-1,2,4-thiadiazole] | ≤ 3
CCC#CCOc1nsc(N2CCCC(C)C2)n1 (stereo not shown) [present compound (8), 3-(2-pentynyloxy)-5-(3-methylpiperidino)-1,2,4-thiadiazole] | ≤ 3
CCC#CCOc1nsc(N2CCC(C)CC2)n1 [present compound (12), 3-(2-pentynyloxy)-5-(4-methylpiperidino)-1,2,4-thiadiazole] | ≤ 3
CC#CCOc1nsc(N2CC(C)OC(C)C2)n1 (stereo not shown) [present compound (17a), 3-(2-butynyloxy)-5-(2,6-dimethylmorpholino)-1,2,4-thiadiazole] | ≤ 3
CC#CCOc1nsc(N2CCCCC2C)n1 (stereo not shown) [present compound (5), 3-(2-butynyloxy)-5-(2-methylpiperidino)-1,2,4-thiadiazole] | ≤ 3
